These are yes or no findings as the source states them, for the method shown. In cells and extracts the contact can be indirect. Some binding calls cover weakened binding; strength is not graded here.

Amino acid sequences for entries named in this document (tags omitted).
UniProt Q92831: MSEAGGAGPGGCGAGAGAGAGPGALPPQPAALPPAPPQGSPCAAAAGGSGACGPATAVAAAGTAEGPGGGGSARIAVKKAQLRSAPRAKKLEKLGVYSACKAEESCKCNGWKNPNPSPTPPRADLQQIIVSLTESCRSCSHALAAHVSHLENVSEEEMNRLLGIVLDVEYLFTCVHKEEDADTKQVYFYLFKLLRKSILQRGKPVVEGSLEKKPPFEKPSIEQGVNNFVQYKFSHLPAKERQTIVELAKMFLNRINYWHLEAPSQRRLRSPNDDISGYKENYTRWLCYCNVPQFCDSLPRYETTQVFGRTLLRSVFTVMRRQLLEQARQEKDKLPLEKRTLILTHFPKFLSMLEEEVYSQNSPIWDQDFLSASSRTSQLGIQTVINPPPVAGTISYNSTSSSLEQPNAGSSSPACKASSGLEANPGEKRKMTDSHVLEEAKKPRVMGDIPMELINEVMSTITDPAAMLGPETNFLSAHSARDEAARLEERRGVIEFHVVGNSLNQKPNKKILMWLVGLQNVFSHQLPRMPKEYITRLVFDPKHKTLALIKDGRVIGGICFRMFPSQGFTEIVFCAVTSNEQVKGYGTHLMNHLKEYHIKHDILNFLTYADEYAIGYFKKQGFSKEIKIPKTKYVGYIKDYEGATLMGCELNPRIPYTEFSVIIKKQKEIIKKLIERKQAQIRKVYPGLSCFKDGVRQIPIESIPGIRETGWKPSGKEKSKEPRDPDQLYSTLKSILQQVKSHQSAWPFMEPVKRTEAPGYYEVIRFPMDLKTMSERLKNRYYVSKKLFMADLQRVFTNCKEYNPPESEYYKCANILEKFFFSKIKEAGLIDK

Here are results for one substance from paper PMC3897949.

In the experiment the target is Flag-tagged full-length human PCAF (human) (UniProt Q92831). The experiment in a line: co-IP; Flag-PCAF and HA-PCAF co-transfected in 293T cells; lysate on anti-Flag M2 affinity gel for 4 h; lysis buffer with 150 mM NaCl and 1% Triton X-100; western blot with anti-HA. In general terms: In western blotting, separated proteins are transferred to a membrane and probed.

For “HA-tagged full-length PCAF (from UniProt Q92831 1-832)”, the binding result is “binds”.
